Test results: article PMC12631243
These are yes or no findings as the source states them, for the method shown. Binding seen in cells or lysates may run through a third protein.

Molecular target: GPX4 (mouse (endogenous in 661W))
Experiment: co-IP; Pierce Crosslink Magnetic IP/Co-IP Kit; antibody cross-linked to magnetic beads with DSS, incubated with cell lysate for 2 hours at room temperature, eluate detected by western blotting; lysate of atRAL-loaded 661W cells; which protein was precipitated is not told

B1: GSDME-N (N-terminal fragment of gasdermin E) (domain or fragment, UniProt Q9Z2D3 1-270)
chain: MFAKATRNFLKEVDAGGDLISVSHLNDSDKLQLLSLVTKKKRYWCWQRPKYQILSATLEDVLTEGHCLSPVVVESDFVKYESKCENHKSGAIGTVVGKVKLNVGGKGVVESHSSFGTLRKQEVDVQQLIQDAVKRTVNMDNLVLQQVLESRNEVLCVLTQKIMTTQKCVISEHVQSEETCGGMVGIQTKTIQVSATEDGTVTTDTNVVLEIPAATTIAYGIMELFVKQDGQFEFCLLQGKHGGFEHERKLDSVYLDPLAYREFAFLDMLD
For B1, the binding was “no binding”.
